PMC11929097, “Stabilized designs of the malaria adhesin protein PvRBP2b for use as a potential diagnostic for Plasmodium vivax [image fx2.gif]” (The Journal of Biological Chemistry, 2025)
No constants are given. Whether binding was seen depends on the method and setting.

Protein sequences, listed by entry. Tags and fused reporters are not part of them. Residues count along the entry.
UniProt A5K736, residues 169-470: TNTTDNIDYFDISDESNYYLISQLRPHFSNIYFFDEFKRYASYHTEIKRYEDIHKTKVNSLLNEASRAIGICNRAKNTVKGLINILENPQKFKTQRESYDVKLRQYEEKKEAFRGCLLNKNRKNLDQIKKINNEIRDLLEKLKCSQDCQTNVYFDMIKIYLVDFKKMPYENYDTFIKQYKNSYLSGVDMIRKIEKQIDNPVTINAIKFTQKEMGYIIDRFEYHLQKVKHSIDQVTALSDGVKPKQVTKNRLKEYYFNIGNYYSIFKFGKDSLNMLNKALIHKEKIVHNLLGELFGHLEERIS

Target: parental PvRBP2b_(169-470) (Plasmodium vivax reticulocyte-binding protein 2b, N-terminal domain) (Plasmodium vivax strain Salvador I) (UniProt A5K736)
Assay: dynamic light scattering; 1 mg/ml protein, DynaPro plate reader III, regularization analysis; hydrodynamic radius compared with the theoretical molecular weight; both purified

parental PvRBP2b_(169-470) (Plasmodium vivax reticulocyte-binding protein 2b, N-terminal domain) (from UniProt A5K736 169-470) (domain or fragment)
binding: no binding (tested: 1 mg/ml)
